Read-outs that look alike come from different tables or passages of the source. Some of these results come from one statement about several compounds together.
How the values were obtained:
[1] = system: wheat rust fungi (Puccinia recondita); test: Wheat rust control test, foliar spray on wheat; assay type: in vivo; details: wheat (cv; Shirogane), foliar spray 200 ppm, inoculated after 5 days, observed after 1+8 days
Description: The spores of wheat rust fungi (Puccinia recondita) were sprinkling-inoculated. After inoculation, the plants were placed under a dark and humid condition at 23° C. for 1 day and were then cultivated at 20° C. under lighting for 8 days and a lesion area was observed.

[2] = system: rice blast fungi (Magnaporthe grisea); assay type: in vivo; details: rice (cv; Nipponbare), 6 days in contact with infected seedlings

| SMILES | lesion area compared to the lesion area in untreated plants [1] [%] | lesion area compared to the lesion area in untreated plants ([2]; foliar spray 200 ppm) [%] | lesion area compared to the lesion area in untreated plants ([2]; foliar spray 500 ppm) [%] |
| --- | --- | --- | --- |
| COc1c(C)c(-c2ccc(OCc3c(Cl)cccc3-n3nnn(C)c3=O)c(C)c2)nn1C [Present compound 212, 1-{3-chloro-2-[2-methyl-4-(1,4-dimethyl-5-methoxy-1H-pyrazol-3-yl)-phenoxymethyl]-phenyl}-4-methyl-1,4-dihydrotetrazole-5-one] | ≤ 30 | ≤ 30 | – |
| COc1c(C)c(-c2ccc(OCc3c(Br)cccc3-n3nnn(C)c3=O)c(C)c2)nn1C [Present compound 213, 1-{3-bromo-2-[2-methyl-4-(1,4-dimethyl-5-methoxy-1H-pyrazol-3-yl)-phenoxymethyl]-phenyl}-4-methyl-1,4-dihydrotetrazole-5-one] | ≤ 30 | ≤ 30 | – |
| COc1cccc(-n2nnn(C)c2=O)c1COc1ccc(-c2nn(C)c(OC)c2C)cc1C [Present compound 214, 1-{3-methoxy-2-[2-methyl-4-(1,4-dimethyl-5-methoxy-1H-pyrazol-3-yl)-phenoxymethyl]-phenyl}-4-methyl-1,4-dihydrotetrazole-5-one] | ≤ 30 | ≤ 30 | – |
| CCc1cccc(-n2nnn(C)c2=O)c1COc1ccc(-c2nn(C)c(OC)c2C)cc1C [Present compound 215, 1-{3-ethyl-2-[2-methyl-4-(1,4-dimethyl-5-methoxy-1H-pyrazol-3-yl)-phenoxymethyl]-phenyl}-4-methyl-1,4-dihydrotetrazole-5-one] | ≤ 30 | ≤ 30 | – |
| COc1c(C)c(-c2ccc(OCc3c(F)cccc3-n3nnn(C)c3=O)c(C)c2)nn1C [Present compound 216, 1-{3-fluoro-2-[2-methyl-4-(1,4-dimethyl-5-methoxy-1H-pyrazol-3-yl)-phenoxymethyl]-phenyl}-4-methyl-1,4-dihydrotetrazole-5-one] | ≤ 30 | ≤ 30 | – |
| CCOc1c(C)c(-c2ccc(OCc3c(C)cccc3-n3nnn(C)c3=O)c(C)c2)nn1C [Present compound 218, 1-{3-methyl-2-[2-methyl-4-(1,4-dimethyl-5-ethoxy-1H-pyrazol-3-yl)-phenoxymethyl]-phenyl}-4-methyl-1,4-dihydrotetrazole-5-one] | ≤ 30 | ≤ 30 | – |
| Cc1cc(-c2cc(C(F)F)n(C)n2)ccc1OCc1c(C)cccc1-n1nnn(C)c1=O [Present compound 220, 1-{3-methyl-2-[2-methyl-4-(5-difluoromethyl-1-methyl-1H-pyrazol-3-yl)-phenoxymethyl]-phenyl}-4-methyl-, 4-dihydrotetrazole-5-one] | ≤ 30 | ≤ 30 | – |
| Cc1cc(-c2nn(C)c(Cl)c2C)ccc1OCc1c(C)cccc1-n1nnn(C)c1=S [Present compound 221, 1-{3-methyl-2-[2-methyl-4-(5-chloro-1,4-dimethyl-1H-pyrazol-3-yl)-phenoxymethyl]-phenyl}-4-methyl-1,4-dihydrotetrazole-5-thione] | ≤ 30 | ≤ 30 | – |
| Cc1cc(-c2nn3c(c2C)OCC3)ccc1OCc1c(C)cccc1-n1nnn(C)c1=O [Present compound 222, 1-4-{3-methyl-2-[2-methyl-4-(7-methyl-2,3-dihydro-pyrazolo[5,1-b]oxazole-6-yl)-phenoxymethyl]-phenyl}-4-methyl-1,4-dihydrotetrazole-5-one] | ≤ 30 | ≤ 30 | – |
| CCc1cccc(-n2nnn(C)c2=O)c1COc1ccc(-c2nn(C)c(C)c2Cl)cc1C [Present compound 223, 1-{3-ethyl-2-[2-methyl-4-(4-chloro-1,5-dimethyl-1H-pyrazol-3-yl)-phenoxymethyl]-phenyl}-4-methyl-1,4-dihydrotetrazole-5-one] | ≤ 30 | ≤ 30 | – |
| Cc1cc(-c2nn3c(c2C)OCCC3)ccc1OCc1c(C)cccc1-n1nnn(C)c1=O [Present compound 224, 1-methyl-4-{3-methyl-2-[2-methyl-4-(3-methyl-6,7-dihydro-5H-pyrazolo[5,1-b][1,3]oxazine-2-yl)-phenoxymethyl]-phenyl}-1,4-dihydrotetrazole-5-one] | ≤ 30 | ≤ 30 | ≤ 30 |
| Cc1cc(-c2nn(C)c(C)c2I)ccc1OCc1c(C)cccc1-n1nnn(C)c1=O [Present compound 230, 1-{3-methyl-2-[2-methyl-4-(1,5-dimethyl-4-iodo-1H-pyrazol-3-yl)-phenoxymethyl]-phenyl}-4-methyl-1,4-dihydrotetrazole-5-one] | ≤ 30 | ≤ 30 | – |
| Cc1cc(-c2nn(C)c(C)c2C#N)ccc1OCc1c(C)cccc1-n1nnn(C)c1=O [Present compound 231, 1-{3-methyl-2-[2-methyl-4-(1,5-dimethyl-4-cyano-1H-pyrazol-3-yl)-phenoxymethyl]-phenyl}-4-methyl-1,4-dihydrotetrazole-5-one] | ≤ 30 | ≤ 30 | – |
| CCOc1c(C)c(-c2ccc(OCc3c(CC)cccc3-n3nnn(C)c3=O)c(C)c2)nn1C [Present compound 232, 1-{3-ethyl-2-[2-methyl-4-(1,4-dimethyl-5-ethoxy-1H-pyrazol-3-yl)-phenoxymethyl]-phenyl}-4-methyl-1,4-dihydrotetrazole-5-one] | ≤ 30 | ≤ 30 | – |
| CCOc1c(C)c(-c2ccc(OCc3c(F)cccc3-n3nnn(C)c3=O)c(C)c2)nn1C [Present compound 233, 1-{3-fluoro-2-[2-methyl-4-(1,4-dimethyl-5-ethoxy-1H-pyrazol-3-yl)-phenoxymethyl]-phenyl}-4-methyl-1,4-dihydrotetrazole-5-one] | ≤ 30 | ≤ 30 | – |
| CCOc1c(C)c(-c2ccc(OCc3c(Br)cccc3-n3nnn(C)c3=O)c(C)c2)nn1C [Present compound 235, 1-{3-bromo-2-[2-methyl-4-(1,4-dimethyl-5-ethoxy-1H-pyrazol-3-yl)-phenoxymethyl]-phenyl}-4-methyl-1,4-dihydrotetrazole-5-one] | ≤ 30 | ≤ 30 | – |
| CCOc1c(C)c(-c2ccc(OCc3c(OC)cccc3-n3nnn(C)c3=O)c(C)c2)nn1C [Present compound 236, 1-{3-methoxy-2-[2-methyl-4-(1,4-dimethyl-5-ethoxy-1H-pyrazol-3-yl)-phenoxymethyl]-phenyl}-4-methyl-1,4-dihydrotetrazole-5-one] | ≤ 30 | ≤ 30 | – |
| CSc1c(C)c(-c2ccc(OCc3c(C)cccc3-n3nnn(C)c3=O)c(C)c2)nn1C [Present compound 238, 1-{3-methyl-2-[2-methyl-4-(1,4-dimethyl-5-methylthio-1H-pyrazol-3-yl)-phenoxymethyl]-phenyl}-4-methyl-, 4-dihydrotetrazole-5-one] | ≤ 30 | ≤ 30 | – |
| C#CCOc1c(C)c(-c2ccc(OCc3c(C)cccc3-n3nnn(C)c3=O)c(C)c2)nn1C [Present compound 244, 1-{3-methyl-2-(2-methyl-4-[1,4-dimethyl-5-(2-propynyloxy)-1H-pyrazol-3-yl]-phenoxymethyl)-phenyl}-4-methyl-1,4-dihydrotetrazole-5-one] | ≤ 30 | ≤ 30 | – |
| Cc1cc(-c2ccn(C)n2)c(C)cc1OCc1c(-n2nnn(C)c2=O)ccc(F)c1C [Present compound 246, 1-{2-[2,5-dimethyl-4-(1-methyl-1H-pyrazol-3-yl)-phenoxymethyl]-4-fluoro-3-methyl-phenyl}-4-methyl-1,4-dihydrotetrazole-5-one] | ≤ 30 | ≤ 30 | – |
| Cc1cc(-c2nn(C)c(OC(F)F)c2C)ccc1OCc1c(C)cccc1-n1nnn(C)c1=O [Present compound 247, 1-{2-[2-methyl-4-(5-difluoromethoxy-1,4-dimethyl-1H-pyrazol-3-yl)-phenoxymethyl]-3-methyl-phenyl}-4-methyl-1,4-dihydrotetrazole-5-one] | ≤ 30 | ≤ 30 | – |
| Cc1cc(-c2nn(C)c(Cl)c2C(F)F)ccc1OCc1c(C)cccc1-n1nnn(C)c1=O [Present compound 256, 1-{3-methyl-2-[2-methyl-4-(5-chloro-4-difluoromethyl-1-methyl-1H-pyrazol-3-yl)-phenoxymethyl]-phenyl}-4-methyl-1,4-dihydrotetrazole-5-one] | ≤ 30 | ≤ 30 | – |
| Cc1cccc(-n2nnn(C)c2=O)c1COc1ccc(-n2nc(C)c(Cl)c2C)cc1Cl [Present compound 257, 1-{2-[4-(4-chloro-3,5-dimethyl-pyrazol-1-yl)-2-chloro-phenoxymethyl]-3-methyl-phenyl}-4-methyl-1,4-dihydrotetrazole-5-one] | ≤ 30 | ≤ 30 | – |

— US9828389B2, “Tetrazolinone compounds and their use as pesticides” (SUMITOMO CHEMICAL COMPANY, LIMITED, priority 2012, dated 2017)
